From patent US20190328784A1, “CHIMERIC ANTIGEN RECEPTORS (CARS) SPECIFIC FOR MUC1 AND METHODS FOR THEIR USE” (Poseida Therapeutics, Inc., priority 2016, published 2019)
Results are given in words; binding and its absence hold for the method and conditions named. Some entries that bind do so weakly or less than the wild type.

Sequences of proteins named here, by UniProt entry; tags and fusion partners are left off. Residues count along the entry.
UniProt P15941, residues 24-1255: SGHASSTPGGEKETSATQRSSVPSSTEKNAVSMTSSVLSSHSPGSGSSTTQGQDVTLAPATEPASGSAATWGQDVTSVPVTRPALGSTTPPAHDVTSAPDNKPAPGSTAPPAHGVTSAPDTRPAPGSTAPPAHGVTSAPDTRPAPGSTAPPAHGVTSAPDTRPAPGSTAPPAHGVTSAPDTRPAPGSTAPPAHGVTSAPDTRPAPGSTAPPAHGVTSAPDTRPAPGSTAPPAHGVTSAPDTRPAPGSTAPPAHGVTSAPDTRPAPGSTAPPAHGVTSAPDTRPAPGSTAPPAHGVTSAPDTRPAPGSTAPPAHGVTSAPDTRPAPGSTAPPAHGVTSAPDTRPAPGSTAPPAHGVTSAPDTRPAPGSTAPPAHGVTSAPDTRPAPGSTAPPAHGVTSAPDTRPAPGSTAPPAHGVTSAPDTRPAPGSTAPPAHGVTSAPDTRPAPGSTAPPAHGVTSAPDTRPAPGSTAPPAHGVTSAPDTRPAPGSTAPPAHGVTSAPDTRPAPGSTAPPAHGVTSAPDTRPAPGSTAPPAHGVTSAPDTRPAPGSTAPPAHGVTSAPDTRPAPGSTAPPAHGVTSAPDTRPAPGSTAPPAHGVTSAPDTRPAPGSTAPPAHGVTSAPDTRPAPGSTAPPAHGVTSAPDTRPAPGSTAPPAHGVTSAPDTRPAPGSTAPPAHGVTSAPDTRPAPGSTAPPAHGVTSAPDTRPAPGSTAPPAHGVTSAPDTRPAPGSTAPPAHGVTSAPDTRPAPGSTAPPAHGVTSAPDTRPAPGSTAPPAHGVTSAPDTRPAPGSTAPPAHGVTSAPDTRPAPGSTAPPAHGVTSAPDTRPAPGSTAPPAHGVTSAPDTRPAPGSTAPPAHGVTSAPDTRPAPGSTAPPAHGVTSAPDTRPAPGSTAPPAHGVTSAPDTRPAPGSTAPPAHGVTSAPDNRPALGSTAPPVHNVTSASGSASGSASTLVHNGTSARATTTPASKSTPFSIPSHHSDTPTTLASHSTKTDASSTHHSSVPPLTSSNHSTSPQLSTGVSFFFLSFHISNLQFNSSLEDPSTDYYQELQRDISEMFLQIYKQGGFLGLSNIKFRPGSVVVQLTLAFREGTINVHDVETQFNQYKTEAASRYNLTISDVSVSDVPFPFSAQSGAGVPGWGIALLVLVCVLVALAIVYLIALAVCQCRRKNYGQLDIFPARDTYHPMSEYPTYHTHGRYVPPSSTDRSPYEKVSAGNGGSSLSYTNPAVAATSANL

Target: full length MUC1 (Homo sapiens, UniProt P15941)
Experiment: epitope test by CAR-T degranulation against unmodified and MUC1-transfected cells, FIG. 15

B1: F1C-HL CAR (MUC1-scFv chimeric antigen receptor) (scFv, not shown: a dimerising Fc or GST)
scFv: QITLKESGPGILQPSQTLSLTCSFSGFSLSTSGMGVSWIRQPSGKGLEWLSHIYWDDDKRYNPSLKSRLSISKDTSRNQVFLKITSVDTADTATYYCAPGVSSWFPYWGPGTLVTVSAGGGGSGGGGSGGGGSSIVMTQTPKFLPVSAGDRVTVTCKASQSVGNYVAWYQQKPGQSPKLLIYFASNRYSGVPDRFTGSGSGTDFTFTISSVQVEDLAVYFCQQHYIFPYTFGSGTKLEIK
**Q.** Which binding does the source give for B1 here?
**A.** The binding was “binds”.
